# Source: PMC9842414
# Chains of the proteins cited; added tags and fusions are not shown.
# UniProt Q9C030: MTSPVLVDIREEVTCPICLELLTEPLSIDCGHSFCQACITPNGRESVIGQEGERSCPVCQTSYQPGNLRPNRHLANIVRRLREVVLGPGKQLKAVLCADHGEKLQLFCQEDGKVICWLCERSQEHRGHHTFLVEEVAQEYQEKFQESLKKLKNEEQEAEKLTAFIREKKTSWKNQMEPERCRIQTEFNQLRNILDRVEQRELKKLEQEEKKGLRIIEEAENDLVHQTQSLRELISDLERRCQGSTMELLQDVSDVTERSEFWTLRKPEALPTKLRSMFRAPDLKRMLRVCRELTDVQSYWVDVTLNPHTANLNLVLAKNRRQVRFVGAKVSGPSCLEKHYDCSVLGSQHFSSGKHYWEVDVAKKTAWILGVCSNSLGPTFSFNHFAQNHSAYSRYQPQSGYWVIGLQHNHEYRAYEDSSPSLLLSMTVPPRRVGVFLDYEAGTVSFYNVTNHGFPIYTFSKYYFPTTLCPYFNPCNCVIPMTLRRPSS
# These are yes or no findings as the source states them, for the method shown. Binding seen in cells or lysates may run through a third protein. Some entries that bind do so weakly or less than the wild type. For part of these data: Tags and fused reporters may be left off the sequences shown.
# T1: HA-tagged SLC1A5 (human) (UniProt Q15758)
# T1 sequence: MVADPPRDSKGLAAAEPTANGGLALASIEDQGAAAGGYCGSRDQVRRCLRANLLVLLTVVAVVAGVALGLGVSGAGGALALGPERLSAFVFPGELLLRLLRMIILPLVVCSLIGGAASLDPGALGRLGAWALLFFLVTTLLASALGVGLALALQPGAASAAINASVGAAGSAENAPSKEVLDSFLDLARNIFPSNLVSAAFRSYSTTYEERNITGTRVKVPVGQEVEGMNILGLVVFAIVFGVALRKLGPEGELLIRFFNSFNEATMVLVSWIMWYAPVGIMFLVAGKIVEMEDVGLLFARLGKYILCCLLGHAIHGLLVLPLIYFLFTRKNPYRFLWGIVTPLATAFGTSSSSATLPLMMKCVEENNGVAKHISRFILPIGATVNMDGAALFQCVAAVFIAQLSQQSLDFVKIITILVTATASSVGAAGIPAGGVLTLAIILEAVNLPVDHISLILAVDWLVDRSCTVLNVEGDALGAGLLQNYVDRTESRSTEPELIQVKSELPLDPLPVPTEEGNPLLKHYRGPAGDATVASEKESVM
# Key:
# HA-tagged SLC1A5 (human) = target: T1, HA-tagged SLC1A5 (human); assay: co-IP; lysates of HEK293T cells transiently transfected with Flag-TRIM6 and HA-SLC1A5; immunoprecipitation with anti-Flag or anti-HA antibodies, immunoblot
# [1] = target: Tripartite motif 6 (TRIM6), endogenous in H460 cells (human (endogenous in H460)) (UniProt Q9C030); assay: co-IP; endogenous proteins in H460 lysates (IP lysis buffer); primary antibodies or IgG at 4°C overnight, Protein A/G-agarose beads at room temperature 2 h, washed 5 times, immunoblot
# [2] = target: Flag-tagged TRIM6 (human) (UniProt Q9C030); assay: co-IP; lysates of HEK293T cells transiently transfected with Flag-TRIM6 and HA-SLC1A5; immunoprecipitation with anti-Flag or anti-HA antibodies, immunoblot
molecule,measurement,setting,value
Flag-tagged TRIM6 (from UniProt Q9C030 1-488),binding,HA-tagged SLC1A5 (human),binds
"Solute carrier family 1 member 5 (SLC1A5), endogenous in H460 cells (protein, UniProt Q15758 1-541) MVADPPRDSKGLAAAEPTANGGLALASIEDQGAAAGGYCGSRDQVRRCLRANLLVLLTVVAVVAGVALGLGVSGAGGALALGPERLSAFVFPGELLLRLLRMIILPLVVCSLIGGAASLDPGALGRLGAWALLFFLVTTLLASALGVGLALALQPGAASAAINASVGAAGSAENAPSKEVLDSFLDLARNIFPSNLVSAAFRSYSTTYEERNITGTRVKVPVGQEVEGMNILGLVVFAIVFGVALRKLGPEGELLIRFFNSFNEATMVLVSWIMWYAPVGIMFLVAGKIVEMEDVGLLFARLGKYILCCLLGHAIHGLLVLPLIYFLFTRKNPYRFLWGIVTPLATAFGTSSSSATLPLMMKCVEENNGVAKHISRFILPIGATVNMDGAALFQCVAAVFIAQLSQQSLDFVKIITILVTATASSVGAAGIPAGGVLTLAIILEAVNLPVDHISLILAVDWLVDRSCTVLNVEGDALGAGLLQNYVDRTESRSTEPELIQVKSELPLDPLPVPTEEGNPLLKHYRGPAGDATVASEKESVM",binding,[1],binds
"HA-tagged SLC1A5 (protein, UniProt Q15758 1-541) MVADPPRDSKGLAAAEPTANGGLALASIEDQGAAAGGYCGSRDQVRRCLRANLLVLLTVVAVVAGVALGLGVSGAGGALALGPERLSAFVFPGELLLRLLRMIILPLVVCSLIGGAASLDPGALGRLGAWALLFFLVTTLLASALGVGLALALQPGAASAAINASVGAAGSAENAPSKEVLDSFLDLARNIFPSNLVSAAFRSYSTTYEERNITGTRVKVPVGQEVEGMNILGLVVFAIVFGVALRKLGPEGELLIRFFNSFNEATMVLVSWIMWYAPVGIMFLVAGKIVEMEDVGLLFARLGKYILCCLLGHAIHGLLVLPLIYFLFTRKNPYRFLWGIVTPLATAFGTSSSSATLPLMMKCVEENNGVAKHISRFILPIGATVNMDGAALFQCVAAVFIAQLSQQSLDFVKIITILVTATASSVGAAGIPAGGVLTLAIILEAVNLPVDHISLILAVDWLVDRSCTVLNVEGDALGAGLLQNYVDRTESRSTEPELIQVKSELPLDPLPVPTEEGNPLLKHYRGPAGDATVASEKESVM",binding,[2],binds
